Data taken from the supplement of paper PMC12889115.
The list shows a part of the results. Values are raw readings; no control value is given beside them.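 Primary screen: polymyxin B was added at a level permeabilizing Salmonella outer membranes while sparing inner membranes. DMSO wells, both with and without polymyxin B, established maximum growth. Plate-to-plate variation meant each plate was ranked on its own, and the lowest-OD600 compounds were selected as hits.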

Tested on: Salmonella enterica serovar Typhimurium SL1344
Test: bacterial growth OD600 after 18 h with compound and polymyxin B; higher = more bacterial growth (less inhibition)
Details: 50 µM, Mueller-Hinton broth

Cc1ccccc1CNc1nc2nonc2nc1NC1CC1
bacterial growth OD600 (polymyxin B 0.75 µg/mL): 0.04

CN(C)S(=O)(=O)N1CCc2ccc(NC(=O)Cc3ccccc3F)cc2C1
bacterial growth OD600 (polymyxin B 1 µg/mL): 1.13

COc1ccc(CNC(=O)CCC2CCCN(Cc3c(F)ccc(F)c3F)C2)c(OC)c1 (configuration not stated)
bacterial growth OD600 (polymyxin B 1 µg/mL): 1.14

Cc1nc2ccccc2n1Cc1cc(C(=O)NCCC(C)C)no1
bacterial growth OD600 (polymyxin B 1 µg/mL): 1.23

Cc1cc(-c2ccnc(-n3ncc(C(=O)N4CCN(C(C)C)CC4)c3C)n2)c(C)s1
bacterial growth OD600 (polymyxin B 0.75 µg/mL): 0.823

Cc1cnc(C)c(N2CCN(C(=O)C3CCC(=O)N(CCc4cccc(F)c4)C3)CC2)n1 (configuration not stated)
bacterial growth OD600 (polymyxin B 1 µg/mL): 1.09

COc1ccc(-c2noc(CN(Cc3ccccc3)CC3CC3)n2)c(OC)c1OC
bacterial growth OD600 (polymyxin B 1 µg/mL): 0.962

COc1ccc(CN2C(=O)O[C@@H]3CN(C(C)C)C[C@@H]32)cc1OC
bacterial growth OD600 (polymyxin B 1 µg/mL): 1.17

O=C(Nc1ccc(Oc2cccnc2)cc1)C1CCCCN1C1CCCC1 (configuration not stated)
bacterial growth OD600 (polymyxin B 1 µg/mL): 0.851

Cc1csc(C(C)N(C)Cc2nc(-c3ccc4ccccc4c3)oc2C)n1 (configuration not stated)
bacterial growth OD600 (polymyxin B 0.75 µg/mL): 0.003

COCCO[C@H]1[C@H](NC(=O)C(C)C)c2ccccc2C12CCN(C(=O)/C=C/c1ccccc1)CC2
bacterial growth OD600 (polymyxin B 0.75 µg/mL): 0.797

CSCC(=O)NC1CC(C)(C)Cc2c1cnn2-c1ccccc1C (configuration not stated)
bacterial growth OD600 (polymyxin B 0.75 µg/mL): 0.257

Cc1cccc(C(=O)N(C)CC2CCCN(CCc3ccccc3F)C2)c1 (configuration not stated)
bacterial growth OD600 (polymyxin B 1 µg/mL): 0.954

COC(=O)c1c(OCCc2ccccc2F)cc(=O)n2c1CCN(C(=O)c1ccccc1Cl)CC2
bacterial growth OD600 (polymyxin B 0.75 µg/mL): 0.81

COc1ccc(CCNC(=O)c2oc3ccc(C)cc3c2C)cc1OC
bacterial growth OD600 (polymyxin B 0.75 µg/mL): 0.001

CCOC(=O)C1(CCOc2ccccc2)CCN(Cc2cccc3c2OCO3)CC1
bacterial growth OD600 (polymyxin B 1 µg/mL): 0.66

OC(Cc1ccccc1)c1ccc2c(c1)CN(Cc1ccoc1)CCO2 (configuration not stated)
bacterial growth OD600 (polymyxin B 0.75 µg/mL): 0.756

COc1ccc(OC2CCN(C3CCCC3)CC2)c(C(=O)N(C)C(C)C)c1
bacterial growth OD600 (polymyxin B 1 µg/mL): 0.949

COCc1ccc(C(=O)N2CCCC(CCC(=O)NCc3ccccc3Cl)C2)o1 (configuration not stated)
bacterial growth OD600 (polymyxin B 1 µg/mL): 0.847

Cc1nnc(-c2cccc(NC(=O)C3CCCCN3C(=O)CC(C)C)c2)s1 (configuration not stated)
bacterial growth OD600 (polymyxin B 1 µg/mL): 0.932

COc1ccc(CCC2CCCN(C(=O)CN3CCCCC3=O)C2)cc1 (configuration not stated)
bacterial growth OD600 (polymyxin B 0.75 µg/mL): 0.817

CN(Cc1ccc(C(F)(F)F)cc1)C1CCN(c2cccc(NC(=O)c3ccncc3)c2)CC1
bacterial growth OD600 (polymyxin B 0.75 µg/mL): 0.605

COc1ccc(CCc2nnc(CCC(=O)N3CCN(C4CCCC4)CC3)o2)cc1
bacterial growth OD600 (polymyxin B 1 µg/mL): 0.944

CN(Cc1ccc(F)cc1)c1ccc(OCC(=O)N(Cc2cccnc2)C[C@@H]2CCC(=O)N2)nn1
bacterial growth OD600 (polymyxin B 0.75 µg/mL): 0.79

COc1cc(CN2CCCC(Nc3ccc4c(c3)OCCO4)C2)c(Cl)cc1O (configuration not stated)
bacterial growth OD600 (polymyxin B 0.75 µg/mL): 0.743

CN1CCN(C(=O)c2coc(COc3ccc(F)cc3)n2)CC1
bacterial growth OD600 (polymyxin B 1 µg/mL): 1.01

O=C(c1ccccc1C(F)(F)F)N1CCCC(Nc2ccccc2)C1 (configuration not stated)
bacterial growth OD600 (polymyxin B 1 µg/mL): 0.922

Cc1ccc(OC2CCN(Cc3nc(Cc4cccc(F)c4)no3)CC2)cc1
bacterial growth OD600 (polymyxin B 1 µg/mL): 0.509

Cn1cc(CNC2CCCc3nc(-c4cccnc4)ncc32)cn1 (configuration not stated)
bacterial growth OD600 (polymyxin B 1 µg/mL): 0.927

CCOC(=O)C1(CCOc2ccccc2)CCN(C(=O)CC2=CCCCC2)CC1
bacterial growth OD600 (polymyxin B 1 µg/mL): 0.129

COc1ccc(CC2(CO)CCN(Cc3ccccc3OC(F)F)CC2)cc1
bacterial growth OD600 (polymyxin B 1 µg/mL): 0.799

O=C(Cn1cnc2ccccc21)N1CCCC(N2CCN(c3ccccc3F)CC2)C1 (configuration not stated)
bacterial growth OD600 (polymyxin B 1 µg/mL): 1.05
